Measurements reported in PubChem BioAssay AID1159578 (Peter MacCallum Cancer Centre, 2015)
Here is a random part of about 18,000 deposited reagents. About 1,030 of them (5.7%) were called active. 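Inactive calls also include pools with fewer than 3300 nuclei, whose migration was not assessed.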 Raw values vary from plate to plate and are shown uncorrected. Not all columns of the deposit are shown.

Test: 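siRNA pools altering how lymphatic endothelial cells close a scratch wound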 (primary screen)
System: human lymphatic endothelial cells
Knock-down reagent: siRNA pool against human genes, 40 nM
Duration: 48 h after transfection
Detection: 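High-content imaging of dye-stained cells in a scratch assay measures filled wound area and nuclei per well; duplicate means given as ratio to mock and robust z-score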
Direction: migration robust z-score: higher = faster migration into the scratch; nuclei per well: higher = more cells in the well
Hit rule: 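Migration changed when robust z exceeds 2 or falls below -2 and mean nuclei number is at least 3300; otherwise not called changed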
Calls: active = migration changed; inactive = no migration change, or too few cells

gene	migration robust z-score	nuclei per well, duplicate mean	Outcome
DNAJC2 (DnaJ heat shock protein family (Hsp40) member C2)	-0.65	5520	inactive
PLEC (plectin)	-0.84	5420	inactive
GSTZ1 (glutathione S-transferase zeta 1)	-0.7	4921	inactive
MRO (maestro)	0.57	5978	inactive
SNX1 (sorting nexin 1)	-0.96	5315	inactive
LRRC34 (leucine rich repeat containing 34)	-0.22	7006	inactive
ABHD17B (abhydrolase domain containing 17B, depalmitoylase)	1.17	6510	inactive
MARVELD2 (MARVEL domain containing 2)	-0.16	6014	inactive
ARID4B (AT-rich interaction domain 4B)	2.86	6716	active
TMEM47 (transmembrane protein 47)	1.74	6214	inactive
OR8B12 (olfactory receptor family 8 subfamily B member 12)	0.5	5392	inactive
SPRR3 (small proline rich protein 3)	0.44	6849	inactive
OR8A1 (olfactory receptor family 8 subfamily A member 1)	-0.2	6502	inactive
MVP (major vault protein)	-0.16	4549	inactive
FABP4 (fatty acid binding protein 4)	-0.57	6099	inactive
TLX1NB (TLX1 neighbor)	-0.69	4987	inactive
HACD1 (3-hydroxyacyl-CoA dehydratase 1)	-1.58	4977	inactive
AANAT (aralkylamine N-acetyltransferase)	-0.86	5410	inactive
DMXL2 (Dmx like 2)	-0.94	6778	inactive
IL6 (interleukin 6)	-0.57	4958	inactive
FHIP2A (FHF complex subunit HOOK interacting protein 2A)	0.45	6104	inactive
SERPINB1 (serpin family B member 1)	0.62	6190	inactive
POLA2 (DNA polymerase alpha 2, accessory subunit)	1.04	4598	inactive

4 entries from above, ordered by “nuclei per well, duplicate mean”, highest first.
gene	migration robust z-score	nuclei per well, duplicate mean	Outcome
SERPINB1 (serpin family B member 1)	0.62	6190	inactive
FHIP2A (FHF complex subunit HOOK interacting protein 2A)	0.45	6104	inactive
IL6 (interleukin 6)	-0.57	4958	inactive
POLA2 (DNA polymerase alpha 2, accessory subunit)	1.04	4598	inactive
